These are yes or no findings as the source states them, for the method shown. Binding seen in cells or lysates may run through a third protein. Some results given as binding are weak or reduced against the parent protein; the word gives no strength. Sequences can lack the tags named with a protein.
Assays:
[1] = target: T1, MYC-tagged ARP (MYC-ARP) (Arabidopsis thaliana) (UniProt P45951); experiment: co-IP; pairwise co-IP validation of ARP, CHR24 and NAP1 with negative controls (Supplementary Fig. S2)
T1 sequence: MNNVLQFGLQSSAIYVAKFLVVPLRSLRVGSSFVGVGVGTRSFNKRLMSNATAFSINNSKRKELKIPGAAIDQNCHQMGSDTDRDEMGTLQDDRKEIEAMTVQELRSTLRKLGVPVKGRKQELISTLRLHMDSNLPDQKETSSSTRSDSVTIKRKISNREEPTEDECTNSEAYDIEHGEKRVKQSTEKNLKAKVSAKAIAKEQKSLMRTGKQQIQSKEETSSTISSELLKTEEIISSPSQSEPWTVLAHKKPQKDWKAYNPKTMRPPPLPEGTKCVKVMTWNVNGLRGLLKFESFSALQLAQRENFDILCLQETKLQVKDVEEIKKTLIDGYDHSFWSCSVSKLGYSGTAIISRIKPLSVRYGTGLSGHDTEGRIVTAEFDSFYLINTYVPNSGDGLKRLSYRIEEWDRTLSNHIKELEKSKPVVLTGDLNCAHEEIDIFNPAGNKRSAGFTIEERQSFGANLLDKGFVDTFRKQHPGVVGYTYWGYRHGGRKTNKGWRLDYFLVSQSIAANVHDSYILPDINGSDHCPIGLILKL

[2] = target: T2, MBP–ARP (Arabidopsis APE-redox protein tagged with maltose-binding protein) (Arabidopsis thaliana) (UniProt P45951); experiment: pull-down; MBP–ARP and MBP (control) immobilised on Amylose Resin, mixed with extracts of mesophyll protoplasts expressing YFP-NAP1;2 and CHR24-FLAG, 4 h at 4 °C, washed three times, immunoblot; only the target purified
T2 sequence: T1 sequence

[3] = target: T1, MYC-tagged ARP (MYC-ARP) (Arabidopsis thaliana); experiment: co-IP; CHR24-FLAG and MYC-ARP transiently co-expressed in mesophyll protoplasts of YFP-NAP1;2 transgenic plants; IP with or without antibodies against GFP, FLAG and MYC, immunoblot

Measured: binding

B1: FLAG-tagged CHR24 (CHR24-FLAG) (enzyme, UniProt Q8W103 1-1090)
chain: MAENTASHRRKPRSLNDRHYSILQDLSAPPRQPPSSSHGEDEETKKSMIKLAGRRRLCKALPKEDEADGYDDPDLVDFYSPVKGETSLDSAGIGNKFTSWDESKEANTELAGEPNFSIITDFCSPSPQLKQKEEMQGDGGRNEIMGILDDLTSKLGTMSIQKKKDSQSNDFDACGVKSQVDKFDFEDAKSSFSLLSDLSKSSPDVVTTYNAGVNSIKDKQGKSGFAIREEQTSKEFSREWEERISNVGKQNSYSGRHFDDNSEDNRQGYNLDRGKSQCKEVDQSMKTTRHIEVSEKIRTVGRSNAAKLRDLDEDDDDDDCLILSGKKAAEMKINKPARSYNAKRHGYDERSLEDEGSITLTGLNLSYTLPGKIATMLYPHQREGLNWLWSLHTQGKGGILGDDMGLGKTMQICSFLAGLFHSKLIKRALVVAPKTLLPHWMKELATVGLSQMTREYYGTSTKAREYDLHHILQGKGILLTTYDIVRNNTKALQGDDHYTDEDDEDGNKWDYMILDEGHLIKNPNTQRAKSLLEIPSSHRIIISGTPIQNNLKELWALFNFSCPGLLGDKNWFKQNYEHYILRGTDKNATDREQRIGSTVAKNLREHIQPFFLRRLKSEVFGDDGATSKLSKKDEIVVWLRLTACQRQLYEAFLNSEIVLSAFDGSPLAALTILKKICDHPLLLTKRAAEDVLEGMDSTLTQEEAGVAERLAMHIADNVDTDDFQTKNDSISCKLSFIMSLLENLIPEGHRVLIFSQTRKMLNLIQDSLTSNGYSFLRIDGTTKAPDRLKTVEEFQEGHVAPIFLLTSQVGGLGLTLTKADRVIVVDPAWNPSTDNQSVDRAYRIGQTKDVIVYRLMTSATVEEKIYRKQVYKGGLFKTATEHKEQIRYFSQQDLRELFSLPKGGFDVSPTQQQLYEEHYNQIKLDEKLESHVKFLETLGIAGVSHHSLLFSKTAPIQAIQKDEEEQIRRETALLLGRASASISQDTVINGADYAFKPKDVNLDKRINISPVDDKELSESVIKARLNRLTMLLQNKGTVSRLPDGGAKIQKQIAELTRELKDMKAAERINMPQVIDLEEDISRKMQKGLNL
binds: all assays above

— paper PMC11132878
